# Experimental data from patent publication US20090227671A1, “Prevention and treatment of atherosclerosis with lithospermate B” (Industry-Academic Cooperation Foundation, priority 2005, published 2009).
# For at least one compound, name, drawing or mass did not settle the structure.
# Assays:
# ERK1/2 = test: Western blot of ERK1/2 phosphorylation in VSMC induced by PDGF-BB; type: cell-based, Sprague-Dawley rats; conditions: 10 μM U0126, 40 μM LY294002, 1 h, then PDGF-BB 10 min; FIG. 5C
# Procedure: VSMC was washed with PBS and then dissolved in lysis buffer (25 mM Tris HCl, pH 7.4, 25 mM NaCl, 25 mM NaF, 25 mM sodium pyrophosphate, 1 mM sodium vanadate, 2.5 mM EDTA, 2.5 mM EGTA, 0.05% (wt/vol) Triton X-100, 0.5% (wt/vol) SDS, 0.5% (wt/vol) deoxycholate, 0.5% (wt/vol) Nonidet P-40, […], and 1 mM PMSF). The cells were collected and centrifuged at 13,000 rpm for 15 min and the protein concentration of the resulting supernatant was measured by Bradford assay. The proteins were denatured and were subjected to SDS-PAGE and then blotted onto nitrocellulose membranes. The membranes were placed in 5% (w/v) non-fat dry milk in TBS with 0.1% Tween20 (TBS-T) and then placed at room temperature for 3 hrs. The blots were placed at 4° C. along with anti-ERK1/2 or anti-Akt antibodies (Cell signaling Technologh, Berely. Mass., USA) for 16 hrs. The membranes were washed 4 times with TBS-T, added with anti-rabbit IgG antibody conjugated with horseradish peroxidase (1:2,000 diluent) and then placed at room temperature for 1 hr. The immunoreactive bands detected by ECL reagents were developed by Hyperfilm-ECL (Amersham Life Science, Little Chalfont, UK). The bands showing positive responses were quantitated by densitometry and then compared with that of control. […]
# [1] = system: vascular smooth muscle cells; test: VSMC proliferation induced by PDGF-BB (LDH and MTT assays); type: cell-based, Sprague-Dawley rats; conditions: U0126 20 μM, LY294002 40 μM; FIG. 1B
# Source text: Vascular smooth muscle cells ('VSMC' hereinafter) were separated from thoracic aorta of a Sprague-Dawley weighted about 100-150 g by using collagenase digestion method and then cultured them according to the method disclosed in previous studies [[…], et al. Role of p44/p42 MAP kinase in the age-dependent increase in vascular smooth muscle cell proliferation and neointimal formation. Arterioscler Thromb Vasc Biol. Feb. 1 2003; 23(2):204-210.; Hamaguchi A, Kim S, Izumi Y, et al. Contribution of extracellular signal-regulated kinase to angiotensin II-induced transforming growth factor-beta1 expression in vascular smooth muscle cells. Hypertension. July 1999; 34(1):126-131]. […] The VSMC was treated in a culture medium not containing serum for 24 hrs prior to treatment with PDGF-BB, and the reaction according to the presence or absence of PDGF-BB was analyzed after pretreating with LAB or other reagents. […] The cells were then washed twice with PBS, lysed by using 0.5% Triton-X100, and then the activity of lactate dehydronase (LDH) was measured by using CytoTox-ONETM assay kit (Promega, Madison, Wis., USA) with fluorescence at […]. […]
smiles,measurement,setting,value
"O=c1cc(N2CCOCC2)oc2c(-c3ccccc3)cccc12 [LY294002, (2-(4-morpholinyl)-8-phenyl)-4H-1-benzopyran-4-one, reference compound]",ERK1/2 phosphorylation due to PDGF-BB (inhibitors),ERK1/2,decreased
same,activities of LDH and MTT induced by PDGF-BB,[1],inhibited
